The target of assay [1] is mu opioid receptor fused to Renilla luciferase (UniProt P35372). Description: FRET or BRET; whole SH-SY5Y cells co-expressing mu-RLuc or delta-RLuc and β-arrestin 2-RGFP, PBS with MgCl2 0.5 mM and CaCl2 0.9 mM; coelenterazine 5 μM; agonist peptide added; stimulated BRET ratio; room temperature. In general terms: BRET reads energy transfer from a luciferase to a nearby fluorophore.

Sequences of proteins named here, by UniProt entry; tags and fusion partners are left off.
UniProt P35372: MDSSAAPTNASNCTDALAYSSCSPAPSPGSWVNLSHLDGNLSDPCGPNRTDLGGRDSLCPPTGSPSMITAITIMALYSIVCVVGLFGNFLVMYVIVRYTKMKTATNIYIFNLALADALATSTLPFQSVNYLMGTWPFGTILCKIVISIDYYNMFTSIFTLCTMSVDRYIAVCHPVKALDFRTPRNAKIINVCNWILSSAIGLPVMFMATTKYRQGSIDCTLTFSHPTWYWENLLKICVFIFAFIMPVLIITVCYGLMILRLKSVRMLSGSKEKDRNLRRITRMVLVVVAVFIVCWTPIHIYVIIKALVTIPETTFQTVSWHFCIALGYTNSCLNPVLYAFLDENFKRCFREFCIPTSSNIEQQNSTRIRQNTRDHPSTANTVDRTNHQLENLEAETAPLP
UniProt P41146: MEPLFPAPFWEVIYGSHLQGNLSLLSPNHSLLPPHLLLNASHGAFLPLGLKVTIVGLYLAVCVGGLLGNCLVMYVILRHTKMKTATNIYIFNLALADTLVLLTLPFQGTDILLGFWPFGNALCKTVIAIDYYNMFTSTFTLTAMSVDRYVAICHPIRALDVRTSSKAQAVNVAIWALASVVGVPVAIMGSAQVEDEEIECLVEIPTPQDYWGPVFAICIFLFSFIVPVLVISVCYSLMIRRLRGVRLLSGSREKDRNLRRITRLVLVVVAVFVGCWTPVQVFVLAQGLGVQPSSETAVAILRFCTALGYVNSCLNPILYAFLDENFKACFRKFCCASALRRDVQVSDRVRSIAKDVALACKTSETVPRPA
UniProt P32121: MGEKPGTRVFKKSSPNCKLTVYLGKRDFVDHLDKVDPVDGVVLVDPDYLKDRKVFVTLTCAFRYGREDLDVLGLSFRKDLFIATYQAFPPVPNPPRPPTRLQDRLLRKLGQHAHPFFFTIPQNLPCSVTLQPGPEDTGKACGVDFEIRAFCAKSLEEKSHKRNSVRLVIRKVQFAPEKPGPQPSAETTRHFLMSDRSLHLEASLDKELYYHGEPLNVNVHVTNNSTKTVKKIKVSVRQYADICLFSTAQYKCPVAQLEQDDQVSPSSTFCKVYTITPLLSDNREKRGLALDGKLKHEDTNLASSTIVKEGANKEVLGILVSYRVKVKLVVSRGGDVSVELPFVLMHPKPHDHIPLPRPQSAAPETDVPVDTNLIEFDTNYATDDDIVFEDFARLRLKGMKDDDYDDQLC
UniProt P62873: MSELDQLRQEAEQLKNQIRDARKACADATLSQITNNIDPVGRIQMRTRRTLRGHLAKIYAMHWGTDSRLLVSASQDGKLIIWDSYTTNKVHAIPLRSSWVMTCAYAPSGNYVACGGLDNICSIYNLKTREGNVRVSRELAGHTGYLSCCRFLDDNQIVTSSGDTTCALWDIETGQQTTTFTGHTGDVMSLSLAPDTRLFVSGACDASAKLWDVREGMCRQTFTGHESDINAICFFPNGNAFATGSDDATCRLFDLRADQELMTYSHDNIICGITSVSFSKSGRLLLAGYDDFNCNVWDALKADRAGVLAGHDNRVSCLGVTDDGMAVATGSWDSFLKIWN

In assay [2] the target is N/OFQ peptide (NOP) receptor fused to Renilla luciferase (UniProt P41146). Kind of assay: FRET or BRET; whole HEK293 cells co-expressing NOP-RLuc and β-arrestin 2-RGFP, PBS with MgCl2 0.5 mM and CaCl2 0.9 mM; coelenterazine 5 μM; agonist peptide added; stimulated BRET ratio; room temperature.
Assay [3] shares this target. Description: FRET or BRET; membranes (3 μg of protein) from HEK293 cells co-expressing NOP-RLuc and Gβ1-RGFP, in DPBS; coelenterazine 5 μM; agonist peptide added; stimulated BRET ratio; room temperature.

No constants are given. Whether binding was seen depends on the method and setting. Binding seen in cells or lysates may run through a third protein. Some binding calls cover weakened binding; strength is not graded here.

Regarding “β-arrestin 2 fused to RGFP (from UniProt P32121 1-409)”, the binding result in assay [1] and in assay [2] was “binds” throughout. For “Gβ1 fused to RGFP (from UniProt P62873 1-340)”, the binding result in assay [3] is on record as “binds”.

Values taken from publication PMC8011926 (Journal of Medicinal Chemistry, 2020).
